From patent US20260216156A1, “METHODS AND COMPOSITIONS FOR THE TREATMENT OF HEARING DISORDERS” (Gateway Biotechnology, Inc., priority 2023, published 2026)
For part of these data: At least one read-out could not be matched to a standard name with certainty. For part of these data: At least one compound was matched to its structure with a doubt left.

What was measured:
[1] = Microemulsion formulation: NMDP solubility and droplet size; type: physicochemical; conditions: microemulsion: 8% Labrafil M 1944CS, 30% Cremophor RH 40/ethanol (3:1) and water
[2] = Pharmacokinetics after intranasal administration, blood samples, NMDP by HPLC; type: in vivo; conditions: Example 7: six volunteer subjects with tinnitus, nasal spray of Example 5, 100 μL dose, about 20 mg
[3] = test system: tinnitus; test: Treating tinnitus with intranasally delivered NMDP (Example 6); type: in vivo; conditions: Example 6: about 1 to 10 mg/kg intranasal, formulation of Example 15, F1 or F2
[4] = test system: mice suffering from noise induced tinnitus; test: Sound-based avoidance detection (SBAD), No-Go trials; type: in vivo
Experimental: Using a shuttle box divided into two compartments, mice were trained to cross from side to side with sound cues in the “Go” trials and remain still in the absence of sound in the “No-Go” trials for 15 days. […] The sound cues were randomly played as white noise or narrow-band noise at 5, 10, 16, 20, and 32 kHz with sound intensities randomly at 75, 80, or 85 dB. […] Additionally, a hurdle was added on training 11 to reinforce the training. After the 15th training day, mice were tested for 3 days to obtain a baseline score to be compared after noise exposure, as well as retraining for 3 days. Following the successful completion of training so that mice reached a high percentage of success in the trials, the mice were exposed to a noise-induced trauma for tinnitus. To ensure that the mice still have their hearing, one ear was protected with an ear plug, while the other ear was exposed to the noise. The mice were placed in a sound booth where they were exposed to 120 dB broadband noise at 4-25 kHz for 2-4 hours. Following the noise exposure, the mice were housed for one month, and then tested to see if they have developed tinnitus. In these testing periods, the mice were tested for three days in the shuttle boxes, where they underwent the Go and No-Go trials, however in the No-Go trials the mice were not shocked, as it is expected that mice with tinnitus would cross compartments in the absence of a sound cue. The mice were continued to be shocked in the Go trials in order to ensure that they have retained their hearing and can hear the sound cues. […] To insure there is a significant difference in the No-Go trial scores, chi-square tests were completed comparing the post-noise exposure tests to the baseline tests. However, if tinnitus is not present in the mice, tests were done after waiting one more month, and another if needed. Mice received dosages of NMDP initially via intraperitoneal injection (i.p.). The Go and No-Go scores for the tests were compared using chi-square tests in Social Science Statistics. […]

[5] = test system: mice suffering from noise induced tinnitus; test: Sound-based avoidance detection (SBAD), Go trials; type: in vivo; conditions: possibly drug induced side effects
Experimental: Using a shuttle box divided into two compartments, mice were trained to cross from side to side with sound cues in the “Go” trials and remain still in the absence of sound in the “No-Go” trials for 15 days. […] The sound cues were randomly played as white noise or narrow-band noise at 5, 10, 16, 20, and 32 kHz with sound intensities randomly at 75, 80, or 85 dB. […] Additionally, a hurdle was added on training 11 to reinforce the training. After the 15th training day, mice were tested for 3 days to obtain a baseline score to be compared after noise exposure, as well as retraining for 3 days. Following the successful completion of training so that mice reached a high percentage of success in the trials, the mice were exposed to a noise-induced trauma for tinnitus. To ensure that the mice still have their hearing, one ear was protected with an ear plug, while the other ear was exposed to the noise. The mice were placed in a sound booth where they were exposed to 120 dB broadband noise at 4-25 kHz for 2-4 hours. Following the noise exposure, the mice were housed for one month, and then tested to see if they have developed tinnitus. […]

[6] = due to high lipophilicity; cited from earlier work

## COCCOC(=O)C1=C(C)NC(C)=C(C(=O)OC(C)C)C1c1cccc([N+](=O)[O-])c1 (stereo not drawn) [NMDP, nimodipine]
[1]
  droplet size: 30.3+/−5.3 nm
[2]
  Time to Cmax: about 1 hr
[3]
  symptoms of tinnitus after administration: decrease in a ringing of the ear or other symptom of tinnitus
[4]; 0.9 mg/mouse intranasal versus 30 mg/kg and 50 mg/kg i.p.
  effect of intranasal dosage compared with intraperitoneal dosages: as effective as the 30 mg/kg and 50 mg/kg dosages administered by intraperitoneal injection
[4]; tinnitus mice, 10 mg/kg i.p., versus saline
  No-Go trial correct rate: only a modest improvement
[4]; tinnitus mice, 3 months post-noise exposure
  No-Go correct scores after NMDP treatment: significant increase
[5]; 50 mg/kg i.p.
  Go trial correct rate: lower correct rate
[5]; intranasal formulation of Example 15 F1, 0.9 mg/mouse
  Go trial correct rate: lower correct rate
[6]
  permeability characteristic: good permeability
